No constants are given. Whether binding was seen depends on the method and setting. Binding seen in cells or lysates may run through a third protein. Some entries that bind do so weakly or less than the wild type.

Protein sequences, listed by entry. Tags and fused reporters are not part of them.
UniProt Q9Y572: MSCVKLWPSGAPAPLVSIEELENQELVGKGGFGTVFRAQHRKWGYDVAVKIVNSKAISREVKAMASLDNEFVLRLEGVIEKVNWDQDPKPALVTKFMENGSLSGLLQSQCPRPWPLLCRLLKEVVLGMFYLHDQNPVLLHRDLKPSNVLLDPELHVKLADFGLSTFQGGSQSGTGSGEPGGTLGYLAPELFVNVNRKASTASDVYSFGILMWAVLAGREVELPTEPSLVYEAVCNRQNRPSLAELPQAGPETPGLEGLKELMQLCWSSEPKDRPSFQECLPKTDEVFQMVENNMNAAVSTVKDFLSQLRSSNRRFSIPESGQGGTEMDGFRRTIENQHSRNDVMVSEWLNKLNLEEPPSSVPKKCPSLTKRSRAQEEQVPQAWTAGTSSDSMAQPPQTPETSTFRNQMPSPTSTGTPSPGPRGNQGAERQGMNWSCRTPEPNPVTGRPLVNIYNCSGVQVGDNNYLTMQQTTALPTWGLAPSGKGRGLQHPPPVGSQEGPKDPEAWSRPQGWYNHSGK
UniProt Q13158: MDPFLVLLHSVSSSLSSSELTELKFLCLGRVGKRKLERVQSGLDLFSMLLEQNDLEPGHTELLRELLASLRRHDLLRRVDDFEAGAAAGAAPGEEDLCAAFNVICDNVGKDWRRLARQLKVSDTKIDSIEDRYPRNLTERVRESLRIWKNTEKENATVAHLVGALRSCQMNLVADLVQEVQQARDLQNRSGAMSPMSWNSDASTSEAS
UniProt Q13546: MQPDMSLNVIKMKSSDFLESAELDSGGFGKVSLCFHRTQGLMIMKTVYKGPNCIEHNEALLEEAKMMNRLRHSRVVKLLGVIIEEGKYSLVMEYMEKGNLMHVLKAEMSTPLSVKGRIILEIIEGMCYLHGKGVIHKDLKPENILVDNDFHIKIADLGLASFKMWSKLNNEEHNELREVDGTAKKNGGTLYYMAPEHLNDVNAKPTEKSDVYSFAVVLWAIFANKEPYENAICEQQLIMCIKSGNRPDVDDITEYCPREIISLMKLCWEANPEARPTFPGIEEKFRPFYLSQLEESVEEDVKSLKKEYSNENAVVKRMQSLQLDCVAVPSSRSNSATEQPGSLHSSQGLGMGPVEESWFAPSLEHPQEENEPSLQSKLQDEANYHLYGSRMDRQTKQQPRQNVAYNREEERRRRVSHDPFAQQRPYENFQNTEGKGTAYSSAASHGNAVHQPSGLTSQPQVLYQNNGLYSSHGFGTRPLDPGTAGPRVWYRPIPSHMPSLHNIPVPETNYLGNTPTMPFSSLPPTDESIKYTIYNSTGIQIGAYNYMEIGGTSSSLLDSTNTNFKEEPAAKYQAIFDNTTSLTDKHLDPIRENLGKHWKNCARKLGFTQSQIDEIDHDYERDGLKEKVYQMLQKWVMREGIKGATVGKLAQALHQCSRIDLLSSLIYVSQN

In assay [1] the target is RIPK3 (human (endogenous in HUVEC)) (UniProt Q9Y572). Briefly: co-IP; endogenous proteins of HUVEC, normoxia or hypoxia (1% O2, 12 h); RIPA lysate; antibody (anti-RIPK3, anti-FADD or anti-SUMO2/3) on protein A+G magnetic beads, lysate overnight at 4 °C, three washes with PBST, immunoblot; anti-RIPK3 IP also from cells transfected with FADD-OE WT or MUT plasmids (Fig. 5B).

The target in assay [2] is FADD (Fas-associated via death domain) (human (endogenous in HUVEC)) (UniProt Q13158). Described as above.
For assay [3], the target named is wild-type FADD (FADD-OE WT) (UniProt Q13158). Briefly: co-IP; HUVEC transfected with FADD-OE (WT) or FADD-OE (MUT) plasmid, normoxia or hypoxia (12 h); RIPA lysate; anti-FADD antibody on protein A+G magnetic beads, immunoblot with anti-RIPK1 and anti-RIPK3. A general note: In western blotting, separated proteins are transferred to a membrane and probed.

In the case of RIPK1 (from UniProt Q13546 1-671), in assay [1], the binding result is reported as “binds”.
Regarding RIPK3 (from UniProt Q9Y572 1-518), the binding entry in assay [2] and in assay [3] was “binds” each time.

For the origin of these results see article PMC11845712.
